# Measurements as given in the supplement of paper PMC8728848.
# This is one part of the list.
# Experiments:
# Test in all cases: glycan array binding signal (z-score within array); higher = stronger binding
# Details in all cases: glycan notation: IUPAC condensed, linker removed
# [1] = target: Gal(b1-3)GlcNAc(a1-6)Gal(b1-4)GlcNAc
# Procedure, shortened: (§1)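 The binding signal is a Z-score computed within each array and averaged over linkers. Arrays of the same protein sequence at different concentrations or buffers were also averaged together. Data originate from 3228 arrays in the Consortium for Functional Glycomics database, kept only where the protein sequence was available.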
# [2] = target: Gal(b1-3)GlcNAc(b1-2)Man(a1-3)[Gal(b1-3)GlcNAc(b1-2)Man(a1-6)]Man(b1-4)GlcNAc(b1-4)GlcNAc
# Procedure, shortened: as §1
# [3] = target: Gal(b1-3)GlcNAc(b1-2)Man(a1-3)[Gal(b1-3)GlcNAc(b1-2)Man(a1-6)]Man(b1-4)GlcNAc(b1-4)[Fuc(a1-6)]GlcNAc
# Procedure, shortened: as §1
# [4] = target: Gal(b1-3)GlcNAc(b1-2)[Gal(b1-3)GlcNAc(b1-6)]Man(a1-6)[Gal(b1-3)GlcNAc(b1-2)Man(a1-3)]Man(b1-4)GlcNAc(b1-4)GlcNAc
# Procedure, shortened: as §1
# [5] = target: Gal(b1-3)GlcNAc(b1-3)Gal(b1-3)GlcNAc
# Procedure, shortened: as §1
# [6] = target: Gal(b1-3)GlcNAc(b1-3)Gal(b1-4)Glc
# Procedure, shortened: as §1
# [7] = target: Gal(b1-3)GlcNAc(b1-3)Gal(b1-4)GlcNAc
# Procedure, shortened: as §1
# [8] = target: Gal(b1-3)GlcNAc(b1-3)Gal(b1-4)GlcNAc(b1-6)[Gal(b1-3)GlcNAc(b1-3)]Gal(b1-4)Glc
# Procedure, shortened: as §1
# [9] = target: Gal(b1-3)GlcNAc(b1-3)Gal(b1-4)[Fuc(a1-3)]GlcNAc(b1-6)[Gal(b1-3)GlcNAc(b1-3)]Gal(b1-4)Glc
# Procedure, shortened: as §1
# [10] = target: Gal(b1-3)GlcNAc(b1-3)GalNAc
# Procedure, shortened: as §1
# [11] = target: Gal(b1-3)GlcNAc(b1-6)Gal(b1-4)GlcNAc
# Procedure, shortened: as §1
# [12] = target: Gal(b1-3)[Fuc(a1-4)]GlcNAc
# Procedure, shortened: as §1
# [13] = target: Gal(b1-3)[Fuc(a1-4)]GlcNAc(b1-2)Man(a1-3)[Gal(b1-3)[Fuc(a1-4)]GlcNAc(b1-2)Man(a1-6)]Man(b1-4)GlcNAc(b1-4)GlcNAc
# Procedure, shortened: as §1
# [14] = target: Gal(b1-3)[Fuc(a1-4)]GlcNAc(b1-2)Man(a1-3)[Gal(b1-3)[Fuc(a1-4)]GlcNAc(b1-2)Man(a1-6)]Man(b1-4)GlcNAc(b1-4)[Fuc(a1-6)]GlcNAc
# Procedure, shortened: as §1
# [15] = target: Gal(b1-3)[Fuc(a1-4)]GlcNAc(b1-3)Gal(b1-3)[Fuc(a1-4)]GlcNAc
# Procedure, shortened: as §1
# [16] = target: Gal(b1-3)[Fuc(a1-4)]GlcNAc(b1-3)Gal(b1-4)GlcNAc
# Procedure, shortened: as §1
# [17] = target: Gal(b1-3)[Fuc(a1-4)]GlcNAc(b1-3)Gal(b1-4)[Fuc(a1-3)]GlcNAc
# Procedure, shortened: as §1
# [18] = target: Gal(b1-3)[GlcNAc(b1-6)]GalNAc
# Procedure, shortened: as §1
# [19] = target: Gal(b1-3)[Neu5Ac(a2-6)]GalNAc
# Procedure, shortened: as §1
# [20] = target: Gal(b1-3)[Neu5Ac(a2-6)]GlcNAc(b1-6)Gal(b1-4)Glc
# Procedure, shortened: as §1
# [21] = target: Gal(b1-3)[Neu5Ac(b2-6)]GalNAc
# Procedure, shortened: as §1
# Gal(b1-4)Gal = target: Gal(b1-4)Gal
# Procedure, shortened: as §1
# [22] = target: Gal(b1-4)GalNAc(a1-3)[Fuc(a1-2)]Gal(b1-4)GlcNAc
# Procedure, shortened: as §1
# [23] = target: Gal(b1-4)GalNAc(b1-3)[Fuc(a1-2)]Gal(b1-4)GlcNAc
# Procedure, shortened: as §1
# Gal(b1-4)Glc = target: Gal(b1-4)Glc
# Procedure, shortened: as §1
# Gal(b1-4)Glc6S = target: Gal(b1-4)Glc6S
# Procedure, shortened: as §1
# Gal(b1-4)GlcNAc = target: Gal(b1-4)GlcNAc
# Procedure, shortened: as §1
# [24] = target: Gal(b1-4)GlcNAc(a1-6)Gal(b1-4)GlcNAc
# Procedure, shortened: as §1
# Gal(b1-4)GlcNAc(b1-2)Man = target: Gal(b1-4)GlcNAc(b1-2)Man
# Procedure, shortened: as §1
# [25] = target: Gal(b1-4)GlcNAc(b1-2)Man(a1-3)Man(b1-4)GlcNAc(b1-4)GlcNAc
# Procedure, shortened: as §1
binder,measurement,setting,value
"NanH (Corynebacterium diphtheriae), C6JSW6 (protein) MYSSNRTYSRAILGLSAVLTLSFTSLVAPVNAEEPETVVPATAELEGEVAATLPSAETGLLDAAPPKPVARGAAGDLQLPAVNEKEVFEEGRVIRAPEPDQSRCYRIPALVTAKNGDLLLAFDNRYGGGDGAKTWCRDAPYENMKRINRQNMQTDIQLYRSVDNGQSFEDFGYIAQGTADVRELSYTDPALVTDRTTGKIFAFFVRAYDYRVGQSSAGFNEGDVEAEIQKRDVQDTVVVESLDGGQTWGNMRLLSALTAKVSSISTGDTIFDGRGRFVTSGAGIQLQYGEHAGRLIVPISVDIDPKDSAKFINLAIYSDDHGQTWQAGIGTAGGAGFSGDVSKIVELSDGRLMMSSKDNDKPRWVSYSEDQGENWSTPKRKIIAPPQHPEKHNTGINVGLIRAYPNAPENSAAARVLLYSAPIDQRYSHKHTEDGRNNGWVMGSCDDGKTWSFGRQIEKNRFQYSSMTVMSDGNIGMVYESGDFSTGMNLKFAKFNMAWLGADCHSNEALGLTGDIDKEIVEAQEKAAEATKEAQEAAEKVQKLTEELAAARKENDELKNQVKGFKEAVGDLANEAEDLADKVFKLETAVTEAKEKATVAEKAASDAVTQLQKAESIAEEQKAKAESAAAEAQALREKLERLEGSILTVKENPEAEEIADLSSTAKDAADAARRAATDANGALSGQKQDEEKPAMGLMGILKVLAGIIPLVAIIATIFQTFRLPFNIPGMR",glycan array binding signal (z-score),[1],-0.677
same,glycan array binding signal (z-score),[2],-0.48
same,glycan array binding signal (z-score),[3],-1.34
same,glycan array binding signal (z-score),[4],0.848
same,glycan array binding signal (z-score),[5],-0.613
same,glycan array binding signal (z-score),[6],-1.28
same,glycan array binding signal (z-score),[7],-0.308
same,glycan array binding signal (z-score),[8],-0.073
same,glycan array binding signal (z-score),[9],0.902
same,glycan array binding signal (z-score),[10],-1.71
same,glycan array binding signal (z-score),[11],-0.126
same,glycan array binding signal (z-score),[12],0.201
same,glycan array binding signal (z-score),[13],1.03
same,glycan array binding signal (z-score),[14],2.84
same,glycan array binding signal (z-score),[15],-0.787
same,glycan array binding signal (z-score),[16],0.675
same,glycan array binding signal (z-score),[17],-1.18
same,glycan array binding signal (z-score),[18],-0.083
same,glycan array binding signal (z-score),[19],-0.334
same,glycan array binding signal (z-score),[20],-0.633
same,glycan array binding signal (z-score),[21],-0.601
same,glycan array binding signal (z-score),Gal(b1-4)Gal,-1.5
same,glycan array binding signal (z-score),[22],-0.104
same,glycan array binding signal (z-score),[23],0.12
same,glycan array binding signal (z-score),Gal(b1-4)Glc,-0.023
same,glycan array binding signal (z-score),Gal(b1-4)Glc6S,-0.262
same,glycan array binding signal (z-score),Gal(b1-4)GlcNAc,0.72
same,glycan array binding signal (z-score),[24],0.525
same,glycan array binding signal (z-score),Gal(b1-4)GlcNAc(b1-2)Man,1.74
same,glycan array binding signal (z-score),[25],0.675

# 2 entries from above, with bars between the fields:
binder | measurement | setting | value
NanH (Corynebacterium diphtheriae), C6JSW6 (protein) MYSSNRTYSRAILGLSAVLTLSFTSLVAPVNAEEPETVVPATAELEGEVAATLPSAETGLLDAAPPKPVARGAAGDLQLPAVNEKEVFEEGRVIRAPEPDQSRCYRIPALVTAKNGDLLLAFDNRYGGGDGAKTWCRDAPYENMKRINRQNMQTDIQLYRSVDNGQSFEDFGYIAQGTADVRELSYTDPALVTDRTTGKIFAFFVRAYDYRVGQSSAGFNEGDVEAEIQKRDVQDTVVVESLDGGQTWGNMRLLSALTAKVSSISTGDTIFDGRGRFVTSGAGIQLQYGEHAGRLIVPISVDIDPKDSAKFINLAIYSDDHGQTWQAGIGTAGGAGFSGDVSKIVELSDGRLMMSSKDNDKPRWVSYSEDQGENWSTPKRKIIAPPQHPEKHNTGINVGLIRAYPNAPENSAAARVLLYSAPIDQRYSHKHTEDGRNNGWVMGSCDDGKTWSFGRQIEKNRFQYSSMTVMSDGNIGMVYESGDFSTGMNLKFAKFNMAWLGADCHSNEALGLTGDIDKEIVEAQEKAAEATKEAQEAAEKVQKLTEELAAARKENDELKNQVKGFKEAVGDLANEAEDLADKVFKLETAVTEAKEKATVAEKAASDAVTQLQKAESIAEEQKAKAESAAAEAQALREKLERLEGSILTVKENPEAEEIADLSSTAKDAADAARRAATDANGALSGQKQDEEKPAMGLMGILKVLAGIIPLVAIIATIFQTFRLPFNIPGMR | glycan array binding signal (z-score) | [15] | -0.787
same | glycan array binding signal (z-score) | [16] | 0.675
